# This is one part of the list.
# Amino acid sequences for entries named in this document (tags omitted). A change or cut given only in a name is not applied to a line headed by its entry.
# UniProt Q04828: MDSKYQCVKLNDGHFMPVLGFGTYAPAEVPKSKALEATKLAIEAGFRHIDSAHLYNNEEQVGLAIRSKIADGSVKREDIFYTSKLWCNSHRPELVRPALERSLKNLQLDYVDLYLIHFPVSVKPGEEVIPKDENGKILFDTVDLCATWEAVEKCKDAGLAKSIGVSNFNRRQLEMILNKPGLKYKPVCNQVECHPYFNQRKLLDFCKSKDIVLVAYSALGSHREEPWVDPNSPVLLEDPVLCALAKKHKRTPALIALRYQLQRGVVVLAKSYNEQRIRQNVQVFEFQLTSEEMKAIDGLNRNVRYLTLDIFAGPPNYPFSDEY
# UniProt P55008: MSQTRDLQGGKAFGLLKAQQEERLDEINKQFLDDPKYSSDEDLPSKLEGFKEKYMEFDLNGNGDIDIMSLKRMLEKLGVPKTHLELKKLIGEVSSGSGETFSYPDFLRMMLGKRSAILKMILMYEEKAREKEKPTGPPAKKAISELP
# UniProt Q3LIE5: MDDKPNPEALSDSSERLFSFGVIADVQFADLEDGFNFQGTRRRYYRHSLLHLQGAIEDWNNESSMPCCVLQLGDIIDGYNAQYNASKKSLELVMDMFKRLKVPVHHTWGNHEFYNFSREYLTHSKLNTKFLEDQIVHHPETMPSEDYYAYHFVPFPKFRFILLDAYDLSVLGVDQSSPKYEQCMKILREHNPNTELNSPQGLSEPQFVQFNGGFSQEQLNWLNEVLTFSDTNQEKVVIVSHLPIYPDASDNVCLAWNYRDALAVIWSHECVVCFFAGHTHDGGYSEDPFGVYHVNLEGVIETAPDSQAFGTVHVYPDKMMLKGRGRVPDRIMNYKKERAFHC
# UniProt Q5TGY3: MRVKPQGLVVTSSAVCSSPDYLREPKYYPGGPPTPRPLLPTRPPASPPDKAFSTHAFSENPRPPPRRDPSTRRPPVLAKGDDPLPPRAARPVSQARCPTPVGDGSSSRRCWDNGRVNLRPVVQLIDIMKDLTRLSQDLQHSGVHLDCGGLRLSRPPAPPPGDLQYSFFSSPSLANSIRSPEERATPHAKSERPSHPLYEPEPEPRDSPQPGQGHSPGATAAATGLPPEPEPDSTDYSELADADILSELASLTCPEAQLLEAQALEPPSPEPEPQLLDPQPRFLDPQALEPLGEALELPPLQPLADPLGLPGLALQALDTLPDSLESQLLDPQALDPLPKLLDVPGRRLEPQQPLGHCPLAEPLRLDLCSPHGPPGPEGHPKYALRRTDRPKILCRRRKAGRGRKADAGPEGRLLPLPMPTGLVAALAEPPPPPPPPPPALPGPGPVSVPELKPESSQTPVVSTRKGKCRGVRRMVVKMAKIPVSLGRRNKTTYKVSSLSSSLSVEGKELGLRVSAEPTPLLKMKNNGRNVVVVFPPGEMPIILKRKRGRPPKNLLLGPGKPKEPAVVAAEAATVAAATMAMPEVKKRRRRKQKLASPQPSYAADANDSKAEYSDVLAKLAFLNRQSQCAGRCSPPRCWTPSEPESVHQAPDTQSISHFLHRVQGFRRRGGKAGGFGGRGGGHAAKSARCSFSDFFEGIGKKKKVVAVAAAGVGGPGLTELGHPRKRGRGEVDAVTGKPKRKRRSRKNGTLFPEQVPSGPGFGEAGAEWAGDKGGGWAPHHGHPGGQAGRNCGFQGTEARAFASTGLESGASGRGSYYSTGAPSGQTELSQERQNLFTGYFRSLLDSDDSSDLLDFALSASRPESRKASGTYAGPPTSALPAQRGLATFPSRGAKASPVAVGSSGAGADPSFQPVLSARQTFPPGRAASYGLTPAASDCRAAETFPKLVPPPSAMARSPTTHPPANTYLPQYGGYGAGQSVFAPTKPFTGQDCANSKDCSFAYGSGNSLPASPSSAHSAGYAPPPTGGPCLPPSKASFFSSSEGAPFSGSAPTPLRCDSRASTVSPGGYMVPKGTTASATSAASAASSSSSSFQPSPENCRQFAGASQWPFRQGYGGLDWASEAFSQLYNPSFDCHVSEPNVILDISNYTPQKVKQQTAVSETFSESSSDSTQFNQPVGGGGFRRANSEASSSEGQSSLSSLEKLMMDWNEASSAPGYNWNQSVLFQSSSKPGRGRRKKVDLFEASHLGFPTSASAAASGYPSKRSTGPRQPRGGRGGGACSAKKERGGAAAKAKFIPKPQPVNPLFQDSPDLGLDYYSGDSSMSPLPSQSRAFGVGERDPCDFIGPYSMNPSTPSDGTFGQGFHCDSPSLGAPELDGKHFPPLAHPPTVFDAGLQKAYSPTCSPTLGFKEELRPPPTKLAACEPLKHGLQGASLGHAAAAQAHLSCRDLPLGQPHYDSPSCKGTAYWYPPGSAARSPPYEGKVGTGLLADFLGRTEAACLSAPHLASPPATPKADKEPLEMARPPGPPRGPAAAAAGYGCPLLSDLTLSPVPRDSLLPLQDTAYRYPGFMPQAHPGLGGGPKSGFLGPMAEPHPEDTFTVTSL
# UniProt Q9BUB4: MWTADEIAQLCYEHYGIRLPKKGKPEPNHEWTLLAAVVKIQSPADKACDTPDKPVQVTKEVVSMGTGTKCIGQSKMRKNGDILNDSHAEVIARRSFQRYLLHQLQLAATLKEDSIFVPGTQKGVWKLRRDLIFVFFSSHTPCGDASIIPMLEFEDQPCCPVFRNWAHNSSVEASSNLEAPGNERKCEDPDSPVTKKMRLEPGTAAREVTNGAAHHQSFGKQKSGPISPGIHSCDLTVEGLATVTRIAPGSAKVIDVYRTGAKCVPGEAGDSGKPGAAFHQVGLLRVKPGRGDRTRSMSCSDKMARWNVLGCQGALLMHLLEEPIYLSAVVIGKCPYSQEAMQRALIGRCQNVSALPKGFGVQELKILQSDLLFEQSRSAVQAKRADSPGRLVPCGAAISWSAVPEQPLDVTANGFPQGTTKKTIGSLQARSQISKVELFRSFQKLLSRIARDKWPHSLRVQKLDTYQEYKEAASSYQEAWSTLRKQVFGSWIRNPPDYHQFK
# UniProt Q04771: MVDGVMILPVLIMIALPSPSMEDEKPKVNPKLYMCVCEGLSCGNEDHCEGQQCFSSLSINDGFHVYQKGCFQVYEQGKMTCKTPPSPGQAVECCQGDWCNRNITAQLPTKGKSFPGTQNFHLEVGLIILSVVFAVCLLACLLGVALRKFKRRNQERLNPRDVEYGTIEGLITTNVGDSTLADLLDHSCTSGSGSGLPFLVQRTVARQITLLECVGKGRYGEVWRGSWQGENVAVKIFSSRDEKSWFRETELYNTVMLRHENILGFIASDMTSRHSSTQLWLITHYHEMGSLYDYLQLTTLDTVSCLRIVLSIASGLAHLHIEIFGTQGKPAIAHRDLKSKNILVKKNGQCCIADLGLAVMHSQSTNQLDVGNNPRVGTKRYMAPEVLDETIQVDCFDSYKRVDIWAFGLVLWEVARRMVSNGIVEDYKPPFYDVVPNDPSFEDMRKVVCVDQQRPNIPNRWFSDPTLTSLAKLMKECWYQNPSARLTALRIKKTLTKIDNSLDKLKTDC
# UniProt Q13444: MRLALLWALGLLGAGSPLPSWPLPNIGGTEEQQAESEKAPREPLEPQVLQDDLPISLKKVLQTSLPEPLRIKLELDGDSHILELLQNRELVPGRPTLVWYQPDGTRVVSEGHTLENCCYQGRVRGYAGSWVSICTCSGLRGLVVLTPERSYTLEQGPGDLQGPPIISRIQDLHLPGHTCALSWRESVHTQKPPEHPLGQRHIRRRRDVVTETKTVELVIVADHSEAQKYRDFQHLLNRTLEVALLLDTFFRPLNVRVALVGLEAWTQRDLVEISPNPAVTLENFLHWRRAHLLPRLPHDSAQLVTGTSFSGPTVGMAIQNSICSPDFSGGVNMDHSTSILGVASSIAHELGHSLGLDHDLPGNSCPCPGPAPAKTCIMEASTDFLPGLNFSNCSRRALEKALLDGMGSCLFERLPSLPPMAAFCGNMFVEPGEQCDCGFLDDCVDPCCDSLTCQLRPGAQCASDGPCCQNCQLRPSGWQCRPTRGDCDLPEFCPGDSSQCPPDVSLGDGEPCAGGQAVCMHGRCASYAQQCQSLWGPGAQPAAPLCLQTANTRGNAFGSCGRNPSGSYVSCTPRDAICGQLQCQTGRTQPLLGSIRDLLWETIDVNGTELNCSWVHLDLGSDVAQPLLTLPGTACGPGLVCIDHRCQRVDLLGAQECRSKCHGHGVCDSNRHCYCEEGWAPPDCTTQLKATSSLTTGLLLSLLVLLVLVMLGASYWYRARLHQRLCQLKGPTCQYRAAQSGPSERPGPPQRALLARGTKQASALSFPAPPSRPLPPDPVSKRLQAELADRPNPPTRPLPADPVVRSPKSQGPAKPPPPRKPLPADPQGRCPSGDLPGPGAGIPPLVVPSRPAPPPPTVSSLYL
# UniProt P51828: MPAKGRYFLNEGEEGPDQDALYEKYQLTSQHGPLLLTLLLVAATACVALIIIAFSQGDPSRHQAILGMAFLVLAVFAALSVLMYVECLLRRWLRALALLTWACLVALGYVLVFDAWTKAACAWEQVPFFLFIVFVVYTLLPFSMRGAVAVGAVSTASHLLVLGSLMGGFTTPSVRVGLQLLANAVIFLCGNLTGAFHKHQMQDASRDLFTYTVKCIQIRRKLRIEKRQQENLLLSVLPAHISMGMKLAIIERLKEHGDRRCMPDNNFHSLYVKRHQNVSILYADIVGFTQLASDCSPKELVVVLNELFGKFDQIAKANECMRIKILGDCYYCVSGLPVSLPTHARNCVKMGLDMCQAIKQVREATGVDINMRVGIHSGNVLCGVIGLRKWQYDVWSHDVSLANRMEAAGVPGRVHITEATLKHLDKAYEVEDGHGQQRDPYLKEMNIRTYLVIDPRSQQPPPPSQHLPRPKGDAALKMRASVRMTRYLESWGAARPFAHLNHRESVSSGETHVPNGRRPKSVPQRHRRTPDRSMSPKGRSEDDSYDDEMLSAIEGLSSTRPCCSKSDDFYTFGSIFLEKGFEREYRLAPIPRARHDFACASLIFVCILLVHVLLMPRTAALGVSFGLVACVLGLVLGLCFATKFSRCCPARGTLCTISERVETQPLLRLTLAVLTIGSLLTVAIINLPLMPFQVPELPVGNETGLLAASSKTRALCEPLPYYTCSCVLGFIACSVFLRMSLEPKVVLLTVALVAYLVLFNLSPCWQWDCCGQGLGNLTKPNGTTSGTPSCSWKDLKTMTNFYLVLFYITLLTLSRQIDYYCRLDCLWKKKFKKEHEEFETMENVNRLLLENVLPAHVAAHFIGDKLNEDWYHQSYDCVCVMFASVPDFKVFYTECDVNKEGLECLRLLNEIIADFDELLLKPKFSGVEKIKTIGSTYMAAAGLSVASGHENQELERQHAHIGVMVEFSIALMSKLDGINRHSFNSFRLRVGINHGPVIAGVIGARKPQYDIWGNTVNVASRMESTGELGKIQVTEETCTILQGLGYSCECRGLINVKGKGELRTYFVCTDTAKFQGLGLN
# UniProt Q6ZN18: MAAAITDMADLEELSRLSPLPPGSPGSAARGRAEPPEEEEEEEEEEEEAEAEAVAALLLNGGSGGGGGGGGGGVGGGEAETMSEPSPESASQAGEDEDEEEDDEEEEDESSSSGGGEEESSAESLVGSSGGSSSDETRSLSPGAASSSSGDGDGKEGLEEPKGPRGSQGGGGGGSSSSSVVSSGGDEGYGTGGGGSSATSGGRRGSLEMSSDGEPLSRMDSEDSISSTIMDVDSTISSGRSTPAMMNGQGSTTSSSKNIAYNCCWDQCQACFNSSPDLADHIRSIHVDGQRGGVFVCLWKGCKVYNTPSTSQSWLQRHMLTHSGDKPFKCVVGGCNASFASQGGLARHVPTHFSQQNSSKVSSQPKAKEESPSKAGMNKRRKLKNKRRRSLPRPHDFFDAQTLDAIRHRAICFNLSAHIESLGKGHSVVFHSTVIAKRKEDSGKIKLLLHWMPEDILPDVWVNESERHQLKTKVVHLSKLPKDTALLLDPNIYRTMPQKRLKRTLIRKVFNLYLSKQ
# UniProt Q9UKU0: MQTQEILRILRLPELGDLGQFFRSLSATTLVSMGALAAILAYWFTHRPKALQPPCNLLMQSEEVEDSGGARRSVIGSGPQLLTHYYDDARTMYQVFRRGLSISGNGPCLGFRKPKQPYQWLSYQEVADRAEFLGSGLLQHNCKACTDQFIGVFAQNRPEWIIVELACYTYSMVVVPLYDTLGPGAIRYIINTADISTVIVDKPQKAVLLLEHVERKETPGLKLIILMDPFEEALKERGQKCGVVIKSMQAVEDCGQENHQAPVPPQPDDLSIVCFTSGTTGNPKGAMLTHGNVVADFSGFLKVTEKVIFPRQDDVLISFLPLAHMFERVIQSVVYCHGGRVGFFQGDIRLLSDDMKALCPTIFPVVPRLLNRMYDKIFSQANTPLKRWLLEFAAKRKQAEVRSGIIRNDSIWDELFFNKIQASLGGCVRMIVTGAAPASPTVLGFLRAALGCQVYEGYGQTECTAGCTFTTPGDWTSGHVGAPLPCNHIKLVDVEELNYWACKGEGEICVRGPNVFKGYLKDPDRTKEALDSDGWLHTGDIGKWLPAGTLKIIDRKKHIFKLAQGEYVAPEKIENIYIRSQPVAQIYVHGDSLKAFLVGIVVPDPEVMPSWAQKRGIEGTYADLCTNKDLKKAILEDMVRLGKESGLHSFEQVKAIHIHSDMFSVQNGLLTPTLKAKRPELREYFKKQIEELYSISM
# Tests used:
# Assay in all cases: log2 fold change, soluble protein after heating vs DMSO (PISA); higher = thermal stabilisation; K562 lysate, 10 uM; active = over 0.2 and 3.5 SD of the protein, either way, in both replicates (recomputed)
# vemurafenib = compound: CCCS(=O)(=O)Nc1ccc(F)c(C(=O)c2c[nH]c3ncc(-c4ccc(Cl)cc4)cc23)c1F [vemurafenib]
# Procedure, shortened: (§1)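 The values are log-two fold changes in thermal stability compared with solvent controls and come from duplicates. They were obtained by TMTpro 16plex LC-MS/MS, with channel sums equalised, on the supernatant after 21,000xg for 90 min. That supernatant came from crude K562 extract at 1 mg/mL protein treated with 10 μM compound for 30 min, heated for 3 min across 48°C-58°C, pooled and brought to 0.5% NP-40 at 4°C.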
# [1] = compound: CCCS(=O)(=O)Nc1ccc(F)c(C(=O)c2c[nH]c3ncc(Cl)cc23)c1F
# Procedure, shortened: as §1
# [2] = compound: CC[C@@H]1C(=O)N(C)c2cnc(Nc3ccc(C(=O)NC4CCN(C)CC4)cc3OC)nc2N1C1CCCC1
# Procedure, shortened: as §1
# volasertib = compound: CC[C@@H]1C(=O)N(C)c2cnc(Nc3ccc(C(=O)N[C@H]4CC[C@H](N5CCN(CC6CC6)CC5)CC4)cc3OC)nc2N1C(C)C [volasertib]
# Procedure, shortened: as §1
# [3] = compound: CCn1c(C(=O)N(C2CC2)C2CC2)cc2c3c(ncn3C)c(Nc3cc(C)n(C)n3)nc21
# Procedure, shortened: as §1
# [4] = compound: CCn1cc(-c2ccnc3[nH]c(-c4cccc(CN(C)C)c4)cc23)c(-c2ccc(NC(=O)N(C)C)cc2)n1
# Procedure, shortened: as §1
# [5] = compound: CN1CCC(CNc2ccc3ncc(-c4cccc(OC(F)(F)F)c4)n3n2)CC1
# Procedure, shortened: as §1
# saracatinib = compound: CN1CCN(CCOc2cc(OC3CCOCC3)c3c(Nc4c(Cl)ccc5c4OCO5)ncnc3c2)CC1 [saracatinib]
# Procedure, shortened: as §1
# barasertib = compound: CCN(CCCOc1ccc2c(Nc3cc(CC(=O)Nc4cccc(F)c4)[nH]n3)ncnc2c1)CCOP(=O)(O)O [barasertib]
# Procedure, shortened: as §1
# sotrastaurin = compound: CN1CCN(c2nc(C3=C(c4c[nH]c5ccccc45)C(=O)NC3=O)c3ccccc3n2)CC1 [sotrastaurin]
# Procedure, shortened: as §1
Target,log2 fold change (vemurafenib),log2 fold change [1],log2 fold change [2],log2 fold change (volasertib),log2 fold change [3],log2 fold change [4],log2 fold change [5],log2 fold change (saracatinib),log2 fold change (barasertib),log2 fold change (sotrastaurin)
AKR1C1 (UniProt Q04828),inactive: 0.046,inactive: -0.011,inactive: -0.036,inactive: 0.091,inactive: -0.037,inactive: 0.076,inactive: -0.485,inactive: 0.138,–,–
ACOT8 (UniProt O14734),inactive: 0.022,inactive: -0.013,inactive: 0.02,inactive: -0.028,inactive: -0.019,inactive: -0.127,inactive: 0.015,inactive: 0.011,inactive: -0.042,inactive: 0.023
AIF1 (UniProt P55008),inactive: -0.596,inactive: -0.069,–,inactive: 0.071,inactive: 0.159,inactive: 0.174,inactive: -0.124,inactive: 0.08,–,inactive: 0.086
ADAM17 (UniProt P78536),inactive: 0.071,–,inactive: -0.151,–,inactive: -0.027,inactive: 0.065,inactive: 0.001,inactive: -0.011,inactive: -0.184,inactive: 0.002
AFDN (UniProt A8MQ02),inactive: 0.034,inactive: 0.122,–,inactive: -0.039,–,–,–,–,–,–
AFMID isoform 2 (UniProt Q63HM1),inactive: -0.051,–,inactive: -0.068,–,inactive: -0.205,inactive: -0.021,inactive: 0.012,–,–,inactive: 0.031
AGA (UniProt P20933),inactive: 0.058,inactive: -0.014,inactive: 0.076,inactive: 0.103,inactive: -0.064,–,–,–,–,inactive: 0.084
AFM (UniProt P43652),inactive: 0.184,–,inactive: -0.012,–,–,inactive: 0.004,inactive: -0.031,–,–,–
ADH5 (UniProt P11766),inactive: 0.003,inactive: -0.035,inactive: -0.039,inactive: 0.024,inactive: -0.007,inactive: -0.04,inactive: 0.029,inactive: -0.026,inactive: -0.017,inactive: -0.031
AKIRIN2 (UniProt Q53H80),inactive: 0.01,inactive: -0.01,inactive: -0.057,inactive: -0.015,inactive: -0.15,inactive: 0.038,inactive: -0.02,inactive: 0.056,–,inactive: 0.009
"ACTB, A0A2R8YEA7",inactive: 0.134,inactive: 0.047,–,inactive: -0.119,–,inactive: -0.232,inactive: -0.022,–,–,–
ADAD1 (UniProt Q96M93),inactive: -0.06,inactive: -0.023,inactive: -0.066,inactive: 0.013,inactive: -0.067,–,–,inactive: -0.026,–,–
AGPAT2 (UniProt O15120),active: 0.33,–,inactive: 0.108,–,inactive: 0.002,inactive: -0.034,inactive: 0.023,–,–,inactive: 0
ADPRM (UniProt Q3LIE5),inactive: 0.093,–,inactive: 0.068,–,inactive: -0.096,inactive: -0.109,inactive: 0.134,–,inactive: 0.172,inactive: -0.384
AKAP10 (UniProt O43572),–,inactive: 0.197,inactive: 0.035,inactive: -0.128,inactive: 0.31,–,–,inactive: 0.022,inactive: 0.141,inactive: 0.052
AHDC1 (UniProt Q5TGY3),–,–,–,–,–,–,–,–,inactive: -0.268,–
ADAT1 (UniProt Q9BUB4),–,–,–,–,–,–,–,–,inactive: 0.094,–
ACTB (UniProt C9JUM1),–,inactive: 0.054,–,inactive: -0.043,–,–,–,–,inactive: 0.143,–
AIMP2 isoform 2 (UniProt Q13155),–,inactive: -0.134,–,inactive: 0.047,inactive: -0.027,–,–,–,inactive: 0.038,inactive: 0.014
ACVR1 (UniProt Q04771),–,–,–,–,–,inactive: -0.244,active: 0.815,–,inactive: -0.115,–
AFAP1L1 (UniProt Q8TED9),–,inactive: 0.116,inactive: 0.158,inactive: 0.06,–,–,–,inactive: -0.035,inactive: 0.113,inactive: 0.086
AJUBA (UniProt Q96IF1),–,–,–,–,–,–,–,inactive: 0.005,–,inactive: -0.102
AKAP17A (UniProt Q02040),–,inactive: 0.29,–,inactive: -0.163,inactive: -0.01,–,–,inactive: -0.094,–,inactive: 0.016
ACOX3 (UniProt O15254),–,–,inactive: 0,–,–,–,–,inactive: 0.054,inactive: -0.13,–

Target,log2 fold change (vemurafenib),log2 fold change [1],log2 fold change [2],log2 fold change (volasertib),log2 fold change [3],log2 fold change [4],log2 fold change [5],log2 fold change (saracatinib),log2 fold change (barasertib),log2 fold change (sotrastaurin)
AGO2 (UniProt E5RJY2),–,inactive: 0.082,–,inactive: -0.005,–,inactive: 0.51,inactive: -0.054,–,–,–
ADAMTSL4 isoform 3 (UniProt Q6UY14),–,inactive: 0.001,–,inactive: 0,inactive: -0.073,inactive: -0.094,inactive: -0.088,inactive: -0.062,inactive: 0.096,inactive: 0.031
ACTG1 (UniProt K7EM38),–,inactive: -0.259,inactive: -0.208,inactive: -0.124,–,–,–,–,–,–
ADAM15 (UniProt Q13444),–,inactive: 0.067,–,inactive: 0.049,inactive: -0.013,inactive: -0.052,inactive: 0.081,inactive: 0.009,inactive: -0.121,inactive: -0.065
"ADK, A0A5F9ZH76",–,inactive: -0.174,–,inactive: 0.167,–,–,–,–,inactive: -0.019,–
ACSL5 isoform 3 (UniProt Q9ULC5),–,inactive: 0.038,–,inactive: -0.045,inactive: 0.004,inactive: 0.058,inactive: -0.318,inactive: 0.007,inactive: 0.115,inactive: -0.018
ACTN4 (UniProt H7C144),–,–,–,–,inactive: 0.003,–,–,inactive: 0.019,–,–
AHCTF1 isoform 2 (UniProt Q8WYP5),–,inactive: 0.063,–,inactive: -0.043,inactive: 0.127,inactive: 0.001,inactive: 0.111,–,–,–
AIF1L (UniProt Q9BQI0),–,inactive: 0.049,inactive: -0.101,inactive: -0.086,inactive: 0.091,inactive: 0.153,inactive: -0.117,inactive: 0.13,inactive: 0.009,inactive: 0.115
ADCY7 (UniProt P51828),–,–,–,–,–,–,–,inactive: -0.12,–,–
ACSS3 (UniProt Q9H6R3),–,–,–,–,–,–,–,–,inactive: -0.067,–
AFG1L (UniProt Q8WV93),–,inactive: -0.021,inactive: -0.132,inactive: -0.01,inactive: 0.013,–,–,inactive: 0.028,–,inactive: 0.059
ADD3 isoform 2 (UniProt Q9UEY8),–,–,–,–,–,–,–,–,–,inactive: 0.038
AEBP2 (UniProt Q6ZN18),–,inactive: 0.098,–,inactive: 0.029,inactive: -0.044,–,–,inactive: 0.021,inactive: 0.184,inactive: 0.114
ACSL6 isoform 1 (UniProt Q9UKU0),–,inactive: 0.012,–,inactive: -0.075,inactive: 0.02,inactive: 0.047,inactive: -0.321,–,inactive: 0.025,–
AGPAT4 (UniProt Q9NRZ5),–,–,inactive: -0.085,–,inactive: -0.045,inactive: -0.255,inactive: -0.057,–,inactive: 0.039,inactive: 0.023
AGTRAP isoform 2 (UniProt Q6RW13),–,inactive: 0.064,–,inactive: -0.029,–,inactive: -0.2,inactive: 0.174,–,inactive: 0.088,–
ADCY3 (UniProt O60266),–,–,–,–,inactive: 0.004,–,–,inactive: 0.035,–,–
AKR7L (UniProt Q8NHP1),–,inactive: 0.029,–,inactive: -0.026,–,–,–,inactive: 0.036,–,inactive: 0.041
ADCK5 (UniProt Q3MIX3),–,inactive: 0.111,inactive: -0.008,inactive: -0.039,–,–,–,inactive: 0.141,–,inactive: 0.056
ACTR8 (UniProt Q9H981),–,inactive: 0.046,inactive: -0.106,inactive: -0.017,inactive: 0.038,–,–,inactive: -0.022,–,–
AKR1B10 (UniProt O60218),–,–,–,–,inactive: -0.588,–,–,inactive: 1.84,–,–
ACSS1 (UniProt Q9NUB1),–,inactive: 0.099,inactive: 0.141,inactive: 0,inactive: -0.045,inactive: -0.158,inactive: -0.02,inactive: -0.005,inactive: 0.101,inactive: 0.081
AFDN (UniProt H0Y948),–,–,–,–,–,–,–,–,–,inactive: -0.136

# For convenience, part of the list above:
Target,log2 fold change (vemurafenib),log2 fold change [1],log2 fold change [2],log2 fold change (volasertib),log2 fold change [3],log2 fold change [4],log2 fold change [5],log2 fold change (saracatinib),log2 fold change (barasertib),log2 fold change (sotrastaurin)
ACSL5 isoform 3 (UniProt Q9ULC5),–,inactive: 0.038,–,inactive: -0.045,inactive: 0.004,inactive: 0.058,inactive: -0.318,inactive: 0.007,inactive: 0.115,inactive: -0.018
ACTN4 (UniProt H7C144),–,–,–,–,inactive: 0.003,–,–,inactive: 0.019,–,–
